In the supplement of paper PMC7666118:
Some of the results follow.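 The calls were made as follows: active = dose-dependent thermal stabilisation significant by F-test of dose-response against flat model at 10% FDR; inactive = not significant.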

The chains behind the UniProt entries cited, without tags or fusion partners. Where a name states a change or a piece, a line headed by the entry shows the natural chain unless it says otherwise.
UniProt Q15369, whole entry: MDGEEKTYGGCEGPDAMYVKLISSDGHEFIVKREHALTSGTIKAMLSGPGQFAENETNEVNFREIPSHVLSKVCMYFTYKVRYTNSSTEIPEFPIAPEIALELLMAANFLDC
UniProt Q96PV7: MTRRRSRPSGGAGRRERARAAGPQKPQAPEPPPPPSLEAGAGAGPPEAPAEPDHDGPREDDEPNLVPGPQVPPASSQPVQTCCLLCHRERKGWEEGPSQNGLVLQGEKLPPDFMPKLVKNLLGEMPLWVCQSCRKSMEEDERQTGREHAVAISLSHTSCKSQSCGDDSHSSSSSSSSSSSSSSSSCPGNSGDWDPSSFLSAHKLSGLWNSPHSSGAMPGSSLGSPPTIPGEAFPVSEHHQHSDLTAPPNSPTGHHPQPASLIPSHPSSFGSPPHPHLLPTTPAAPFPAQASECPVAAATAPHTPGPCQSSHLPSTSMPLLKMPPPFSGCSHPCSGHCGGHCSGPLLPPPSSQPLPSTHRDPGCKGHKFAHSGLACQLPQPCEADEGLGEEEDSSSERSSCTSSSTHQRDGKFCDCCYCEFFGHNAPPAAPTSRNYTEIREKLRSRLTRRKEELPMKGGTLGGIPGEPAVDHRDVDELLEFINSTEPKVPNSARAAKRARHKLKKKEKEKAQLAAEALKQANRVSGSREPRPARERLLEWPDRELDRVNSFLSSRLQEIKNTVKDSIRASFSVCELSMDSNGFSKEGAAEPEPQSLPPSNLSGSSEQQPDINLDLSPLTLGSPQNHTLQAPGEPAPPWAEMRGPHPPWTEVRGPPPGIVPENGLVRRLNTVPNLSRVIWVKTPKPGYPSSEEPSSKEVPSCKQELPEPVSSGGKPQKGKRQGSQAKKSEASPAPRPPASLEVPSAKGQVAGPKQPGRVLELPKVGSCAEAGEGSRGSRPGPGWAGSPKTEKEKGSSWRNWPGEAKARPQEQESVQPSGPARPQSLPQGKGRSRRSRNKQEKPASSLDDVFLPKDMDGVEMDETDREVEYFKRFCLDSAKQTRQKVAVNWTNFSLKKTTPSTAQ
UniProt P55010, whole entry: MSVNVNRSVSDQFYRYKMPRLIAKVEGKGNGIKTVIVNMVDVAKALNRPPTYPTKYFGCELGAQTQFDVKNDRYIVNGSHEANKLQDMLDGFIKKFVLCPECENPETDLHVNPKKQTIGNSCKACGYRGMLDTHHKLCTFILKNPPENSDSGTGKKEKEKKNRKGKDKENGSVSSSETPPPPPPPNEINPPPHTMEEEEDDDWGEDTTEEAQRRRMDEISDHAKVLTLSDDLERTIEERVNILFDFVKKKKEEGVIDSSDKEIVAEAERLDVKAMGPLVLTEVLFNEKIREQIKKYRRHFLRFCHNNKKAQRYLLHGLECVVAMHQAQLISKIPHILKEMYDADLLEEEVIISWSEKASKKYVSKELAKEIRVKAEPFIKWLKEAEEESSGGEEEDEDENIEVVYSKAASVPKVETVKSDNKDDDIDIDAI
UniProt Q9NSD9: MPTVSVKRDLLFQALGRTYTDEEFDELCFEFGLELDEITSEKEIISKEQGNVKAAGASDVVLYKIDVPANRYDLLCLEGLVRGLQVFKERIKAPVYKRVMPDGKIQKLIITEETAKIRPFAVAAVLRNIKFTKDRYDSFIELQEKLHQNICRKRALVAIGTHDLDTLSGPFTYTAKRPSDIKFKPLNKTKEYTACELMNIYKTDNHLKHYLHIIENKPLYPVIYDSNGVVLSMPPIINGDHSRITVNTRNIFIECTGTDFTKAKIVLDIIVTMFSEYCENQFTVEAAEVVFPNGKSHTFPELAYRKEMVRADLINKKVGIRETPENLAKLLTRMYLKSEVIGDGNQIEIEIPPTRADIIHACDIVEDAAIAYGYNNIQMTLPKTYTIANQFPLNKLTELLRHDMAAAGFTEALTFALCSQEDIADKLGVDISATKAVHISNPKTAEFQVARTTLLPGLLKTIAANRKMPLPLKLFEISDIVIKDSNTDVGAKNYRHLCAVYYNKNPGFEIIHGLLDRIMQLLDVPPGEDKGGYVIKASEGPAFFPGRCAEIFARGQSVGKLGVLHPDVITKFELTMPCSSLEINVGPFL
UniProt O43414: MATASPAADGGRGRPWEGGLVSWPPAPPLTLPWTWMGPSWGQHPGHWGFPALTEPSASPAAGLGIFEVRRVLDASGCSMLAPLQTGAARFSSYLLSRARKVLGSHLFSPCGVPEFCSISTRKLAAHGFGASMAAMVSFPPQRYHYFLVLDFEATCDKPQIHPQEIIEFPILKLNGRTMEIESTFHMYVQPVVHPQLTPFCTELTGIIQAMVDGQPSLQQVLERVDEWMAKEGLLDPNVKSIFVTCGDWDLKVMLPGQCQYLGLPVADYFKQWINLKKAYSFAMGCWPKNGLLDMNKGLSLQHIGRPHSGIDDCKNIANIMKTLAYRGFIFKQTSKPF
UniProt Q969W3: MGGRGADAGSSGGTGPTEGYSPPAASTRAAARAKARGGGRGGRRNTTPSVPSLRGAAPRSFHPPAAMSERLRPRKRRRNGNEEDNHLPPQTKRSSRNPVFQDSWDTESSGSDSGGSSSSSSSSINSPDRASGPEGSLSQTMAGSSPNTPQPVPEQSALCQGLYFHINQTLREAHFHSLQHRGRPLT
UniProt O00303, whole entry: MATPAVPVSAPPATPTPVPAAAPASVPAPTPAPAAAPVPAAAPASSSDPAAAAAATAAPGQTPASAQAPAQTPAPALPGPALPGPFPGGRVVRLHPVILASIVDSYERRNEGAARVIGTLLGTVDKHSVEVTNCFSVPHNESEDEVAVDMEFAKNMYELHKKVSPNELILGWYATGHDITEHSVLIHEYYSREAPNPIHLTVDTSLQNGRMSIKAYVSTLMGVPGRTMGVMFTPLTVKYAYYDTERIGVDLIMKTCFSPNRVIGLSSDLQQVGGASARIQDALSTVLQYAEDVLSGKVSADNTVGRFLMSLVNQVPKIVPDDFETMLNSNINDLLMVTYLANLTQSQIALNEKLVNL
UniProt Q9UPT5: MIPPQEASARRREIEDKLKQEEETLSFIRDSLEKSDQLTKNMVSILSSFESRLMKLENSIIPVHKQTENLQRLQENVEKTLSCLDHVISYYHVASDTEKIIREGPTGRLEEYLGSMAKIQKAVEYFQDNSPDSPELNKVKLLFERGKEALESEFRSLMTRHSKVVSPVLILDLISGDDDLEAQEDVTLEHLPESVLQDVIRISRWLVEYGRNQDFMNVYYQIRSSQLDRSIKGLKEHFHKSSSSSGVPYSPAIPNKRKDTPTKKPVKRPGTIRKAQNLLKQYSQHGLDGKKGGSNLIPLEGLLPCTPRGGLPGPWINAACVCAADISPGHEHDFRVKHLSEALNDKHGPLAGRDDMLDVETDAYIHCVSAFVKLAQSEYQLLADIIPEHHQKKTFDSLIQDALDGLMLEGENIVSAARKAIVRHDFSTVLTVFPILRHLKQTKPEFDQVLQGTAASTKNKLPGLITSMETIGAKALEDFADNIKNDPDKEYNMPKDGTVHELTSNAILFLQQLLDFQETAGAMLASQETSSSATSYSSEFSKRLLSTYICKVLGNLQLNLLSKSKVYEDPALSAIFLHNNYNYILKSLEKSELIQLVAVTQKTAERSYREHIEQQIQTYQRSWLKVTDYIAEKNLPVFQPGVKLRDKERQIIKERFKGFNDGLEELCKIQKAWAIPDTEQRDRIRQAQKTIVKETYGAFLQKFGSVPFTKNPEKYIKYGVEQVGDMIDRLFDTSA
UniProt Q9UPW0: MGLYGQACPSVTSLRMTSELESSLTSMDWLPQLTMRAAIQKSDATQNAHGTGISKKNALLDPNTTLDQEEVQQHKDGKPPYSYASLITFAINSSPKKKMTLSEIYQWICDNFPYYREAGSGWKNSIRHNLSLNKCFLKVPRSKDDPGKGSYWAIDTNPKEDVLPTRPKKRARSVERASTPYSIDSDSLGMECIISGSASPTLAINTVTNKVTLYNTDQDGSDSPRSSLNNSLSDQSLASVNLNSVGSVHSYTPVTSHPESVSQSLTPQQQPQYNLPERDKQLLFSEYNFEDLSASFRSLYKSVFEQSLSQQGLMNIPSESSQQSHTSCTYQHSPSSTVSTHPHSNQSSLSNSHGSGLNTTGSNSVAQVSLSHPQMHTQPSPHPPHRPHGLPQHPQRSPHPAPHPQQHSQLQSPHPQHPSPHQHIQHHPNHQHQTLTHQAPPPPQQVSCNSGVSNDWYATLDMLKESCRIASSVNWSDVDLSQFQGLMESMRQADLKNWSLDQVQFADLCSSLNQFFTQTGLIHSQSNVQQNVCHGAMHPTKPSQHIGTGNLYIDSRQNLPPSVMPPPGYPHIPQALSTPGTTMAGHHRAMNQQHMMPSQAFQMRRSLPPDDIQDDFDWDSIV
UniProt P02792: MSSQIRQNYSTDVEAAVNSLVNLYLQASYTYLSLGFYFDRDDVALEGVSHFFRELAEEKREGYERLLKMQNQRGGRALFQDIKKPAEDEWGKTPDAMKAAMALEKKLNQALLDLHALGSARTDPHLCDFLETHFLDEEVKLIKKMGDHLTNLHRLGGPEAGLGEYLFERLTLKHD
UniProt Q8TCE6, whole entry: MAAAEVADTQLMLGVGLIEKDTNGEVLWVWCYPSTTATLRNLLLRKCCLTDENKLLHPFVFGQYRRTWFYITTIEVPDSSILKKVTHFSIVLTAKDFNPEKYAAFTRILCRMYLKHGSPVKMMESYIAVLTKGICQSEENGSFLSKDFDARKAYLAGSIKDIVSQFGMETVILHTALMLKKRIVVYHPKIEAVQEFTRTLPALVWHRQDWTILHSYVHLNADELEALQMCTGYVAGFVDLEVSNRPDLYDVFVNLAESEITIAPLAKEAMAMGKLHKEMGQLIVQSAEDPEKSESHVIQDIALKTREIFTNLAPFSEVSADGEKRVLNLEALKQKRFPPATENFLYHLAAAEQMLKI
UniProt Q8N3D4: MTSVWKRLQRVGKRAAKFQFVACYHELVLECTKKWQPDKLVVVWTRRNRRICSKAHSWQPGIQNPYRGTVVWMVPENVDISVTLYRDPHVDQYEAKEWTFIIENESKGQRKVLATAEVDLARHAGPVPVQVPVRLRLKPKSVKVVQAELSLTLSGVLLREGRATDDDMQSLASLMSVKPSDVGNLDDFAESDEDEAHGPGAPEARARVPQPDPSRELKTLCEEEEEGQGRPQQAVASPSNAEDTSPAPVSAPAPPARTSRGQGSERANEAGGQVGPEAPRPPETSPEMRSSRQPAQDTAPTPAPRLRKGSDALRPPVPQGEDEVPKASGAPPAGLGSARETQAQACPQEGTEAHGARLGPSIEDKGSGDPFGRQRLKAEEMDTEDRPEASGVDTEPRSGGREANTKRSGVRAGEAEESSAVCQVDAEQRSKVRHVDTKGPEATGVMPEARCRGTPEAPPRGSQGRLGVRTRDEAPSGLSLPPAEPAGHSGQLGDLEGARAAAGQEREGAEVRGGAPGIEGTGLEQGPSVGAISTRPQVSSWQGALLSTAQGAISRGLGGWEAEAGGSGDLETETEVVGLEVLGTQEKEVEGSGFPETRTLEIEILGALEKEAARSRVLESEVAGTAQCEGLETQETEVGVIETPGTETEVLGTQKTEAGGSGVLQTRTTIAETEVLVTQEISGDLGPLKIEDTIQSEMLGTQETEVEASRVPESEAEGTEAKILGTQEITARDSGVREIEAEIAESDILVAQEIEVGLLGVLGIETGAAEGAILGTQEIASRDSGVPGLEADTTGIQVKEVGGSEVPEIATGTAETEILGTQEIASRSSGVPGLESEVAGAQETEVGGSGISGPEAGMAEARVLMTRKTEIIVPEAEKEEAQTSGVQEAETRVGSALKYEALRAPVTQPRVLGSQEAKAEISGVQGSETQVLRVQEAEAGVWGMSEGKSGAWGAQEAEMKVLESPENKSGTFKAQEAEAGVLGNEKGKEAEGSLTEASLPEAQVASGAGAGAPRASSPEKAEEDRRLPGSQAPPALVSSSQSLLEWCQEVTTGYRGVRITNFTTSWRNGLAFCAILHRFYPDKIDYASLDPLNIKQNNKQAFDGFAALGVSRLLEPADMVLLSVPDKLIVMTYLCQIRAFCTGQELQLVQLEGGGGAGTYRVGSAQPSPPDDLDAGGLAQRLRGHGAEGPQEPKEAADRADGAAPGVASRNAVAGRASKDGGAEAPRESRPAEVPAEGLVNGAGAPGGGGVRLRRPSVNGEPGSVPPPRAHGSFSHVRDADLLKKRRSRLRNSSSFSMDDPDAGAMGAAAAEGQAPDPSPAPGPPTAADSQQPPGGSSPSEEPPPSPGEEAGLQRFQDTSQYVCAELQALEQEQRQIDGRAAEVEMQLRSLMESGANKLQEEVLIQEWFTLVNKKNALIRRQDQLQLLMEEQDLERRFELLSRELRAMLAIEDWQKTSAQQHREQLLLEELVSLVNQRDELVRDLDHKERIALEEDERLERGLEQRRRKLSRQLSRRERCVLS
UniProt Q9BUP0: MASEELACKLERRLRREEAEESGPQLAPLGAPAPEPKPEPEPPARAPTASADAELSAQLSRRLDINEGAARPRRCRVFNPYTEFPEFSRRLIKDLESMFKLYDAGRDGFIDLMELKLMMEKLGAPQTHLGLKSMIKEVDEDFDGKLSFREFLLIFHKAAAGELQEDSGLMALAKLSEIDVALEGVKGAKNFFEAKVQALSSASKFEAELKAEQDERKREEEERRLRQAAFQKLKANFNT

compound: Nc1nc2c(ncn2[C@@H]2O[C@H](COP(=O)(O)OP(=O)(O)OP(=O)(O)O)[C@@H](O)[C@H]2O)c(=O)[nH]1; assay: dose-dependent thermal stabilisation call (2D-TPP, DLPTP, 10% FDR) (binary (1 = stabilised)); higher = stabilised by the compound; settings: system: Jurkat gel-filtered lysate; concentration range 1-500 µM
Experimental: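 2D thermal proteome profiling in gel-filtered Jurkat E6.1 lysate (2 mg/ml) treated with NaGTP (0, 1, 10, 100, 500 uM) for 10 min at room temperature, then heated 3 min at one of 12 temperatures (42-63.9 C). Soluble protein was quantified by TMT10 MS. The value is the DLPTP call of the paper: dose-dependent thermal stabilisation over all temperatures at 10% FDR (F-test of a dose-response against a flat model); one experiment, one call per tested protein.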

Row | Target | dose-dependent thermal stabilisation call
1 | EP300 (UniProt Q09472) | inactive: 0
2 | EXOC3 (UniProt O60645) | inactive: 0
3 | FAM120A (UniProt Q9NZB2) | active: 1
4 | EIF3E (UniProt P60228) | inactive: 0
5 | EIF3H (UniProt O15372) | inactive: 0
6 | EXOC4 (UniProt Q96A65) | inactive: 0
7 | FAM207A (UniProt Q9NSI2) | inactive: 0
8 | ELF1 (UniProt P32519) | inactive: 0
9 | FLI1 (UniProt Q01543) | active: 1
10 | FKBP2 (UniProt P26885) | inactive: 0
11 | ETF1 (UniProt P62495) | inactive: 0
12 | FHL1 (UniProt Q13642) | inactive: 0
13 | FANCD2 (UniProt Q9BXW9) | active: 1
14 | ELOC (UniProt Q15369) | inactive: 0
15 | FAM193B (UniProt Q96PV7) | inactive: 0
16 | FLII (UniProt Q13045) | inactive: 0
17 | FBXO3 (UniProt Q9UK99) | inactive: 0
18 | EIF5 (UniProt P55010) | inactive: 0
19 | FARSB (UniProt Q9NSD9) | inactive: 0
20 | ERI3 (UniProt O43414) | inactive: 0

Some values from the list:
dose-dependent thermal stabilisation call with FLI1 (UniProt Q01543) reads active: 1
dose-dependent thermal stabilisation call with EXOC4 (UniProt Q96A65) reads inactive: 0
dose-dependent thermal stabilisation call with FKBP2 (UniProt P26885) reads inactive: 0

Further records follow:

Row | Target | dose-dependent thermal stabilisation call
21 | FAM104A (UniProt Q969W3) | inactive: 0
22 | FAH (UniProt P16930) | inactive: 0
23 | EIF3F (UniProt O00303) | inactive: 0
24 | FARSA (UniProt Q9Y285) | active: 1
25 | EXOC7 (UniProt Q9UPT5) | inactive: 0
26 | FEM1B (UniProt Q9UK73) | inactive: 0
27 | FOXJ3 (UniProt Q9UPW0) | inactive: 0
28 | FAM32A (UniProt Q9Y421) | inactive: 0
29 | FAM53B (UniProt Q14153) | inactive: 0
30 | FAM136A (UniProt Q96C01) | inactive: 0
31 | FAM171A2 (UniProt A8MVW0) | inactive: 0
32 | FTL (UniProt P02792) | inactive: 0
33 | EIF4A3 (UniProt P38919) | active: 1
34 | FIZ1 (UniProt Q96SL8) | inactive: 0
35 | EPS15 (UniProt P42566) | inactive: 0
36 | EXOSC2 (UniProt Q13868) | active: 1
37 | FAM118A (UniProt Q9NWS6) | inactive: 0
38 | FAM45A (UniProt Q8TCE6) | inactive: 0
39 | EHBP1L1 (UniProt Q8N3D4) | inactive: 0
40 | EFHD1 (UniProt Q9BUP0) | inactive: 0
